Reference: publication PMC2973829
These are yes or no findings as the source states them, for the method shown. In cells and extracts the contact can be indirect. Some results given as binding are weak or reduced against the parent protein; the word gives no strength. Tags and fused reporters may be left off the sequences shown.

By UniProt entry, the sequences of proteins in these tests, tags left out.
UniProt O15524: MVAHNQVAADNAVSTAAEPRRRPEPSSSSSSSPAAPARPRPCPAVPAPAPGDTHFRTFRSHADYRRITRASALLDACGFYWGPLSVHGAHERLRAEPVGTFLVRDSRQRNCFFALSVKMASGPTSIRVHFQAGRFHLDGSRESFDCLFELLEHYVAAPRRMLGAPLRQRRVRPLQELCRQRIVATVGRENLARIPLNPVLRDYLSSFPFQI

Target: T1, Flag-tagged IRF3 full length (Interferon regulatory factor 3) (UniProt Q14653)
T1 sequence: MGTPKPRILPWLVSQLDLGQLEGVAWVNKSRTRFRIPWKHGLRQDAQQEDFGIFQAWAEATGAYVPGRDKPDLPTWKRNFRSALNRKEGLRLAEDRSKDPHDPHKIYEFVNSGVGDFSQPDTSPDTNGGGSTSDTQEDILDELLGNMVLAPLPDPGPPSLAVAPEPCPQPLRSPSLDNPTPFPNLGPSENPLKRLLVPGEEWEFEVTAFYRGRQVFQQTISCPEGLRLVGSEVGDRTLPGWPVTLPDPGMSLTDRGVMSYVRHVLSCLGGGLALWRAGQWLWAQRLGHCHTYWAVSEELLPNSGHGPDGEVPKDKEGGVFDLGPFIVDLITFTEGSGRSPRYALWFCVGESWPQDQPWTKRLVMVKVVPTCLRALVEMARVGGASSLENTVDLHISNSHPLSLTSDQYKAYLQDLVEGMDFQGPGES
Experiment: co-IP; HEK293 T cells co-transfected with Myc-SOCS1 and Flag-IRF3, 24 h; 1% Triton X-100 lysis buffer (20 mM Tris-HCl pH 7.5, 200 mM NaCl); whole cell extract 300 ug precipitated overnight at 4 C with anti-MYC (9E10) or anti-IRF3 antiserum (methods; the legend says Flag or Myc antibodies) on A/G Plus-agarose; immunoblot

Myc-tagged SOCS1 full length (Suppressor of cytokine signaling 1) (from UniProt O15524 1-211)
binding: binds
